Data reported in publication PMC7804955.
Results are given in words; binding and its absence hold for the method and conditions named. Binding seen in cells or lysates may run through a third protein. Some results given as binding are weak or reduced against the parent protein; the word gives no strength.

Sequences of proteins named here, by UniProt entry; tags and fusion partners are left off.
UniProt Q9NZI8: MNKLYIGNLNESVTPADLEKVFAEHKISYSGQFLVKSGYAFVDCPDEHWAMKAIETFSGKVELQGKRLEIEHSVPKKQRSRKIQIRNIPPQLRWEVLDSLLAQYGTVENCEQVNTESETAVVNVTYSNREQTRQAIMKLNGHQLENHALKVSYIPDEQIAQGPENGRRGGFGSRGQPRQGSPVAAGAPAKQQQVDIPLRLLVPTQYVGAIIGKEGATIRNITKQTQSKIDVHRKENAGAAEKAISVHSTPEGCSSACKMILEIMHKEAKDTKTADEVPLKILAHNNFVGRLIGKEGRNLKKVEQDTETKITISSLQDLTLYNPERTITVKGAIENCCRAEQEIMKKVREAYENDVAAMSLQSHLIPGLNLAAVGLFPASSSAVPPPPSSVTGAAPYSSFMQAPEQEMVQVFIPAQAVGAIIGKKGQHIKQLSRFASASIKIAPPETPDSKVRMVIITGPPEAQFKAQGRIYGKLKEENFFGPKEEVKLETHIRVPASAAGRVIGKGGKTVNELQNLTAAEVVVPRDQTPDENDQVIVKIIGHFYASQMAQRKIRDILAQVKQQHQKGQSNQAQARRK
UniProt Q9Y6M1: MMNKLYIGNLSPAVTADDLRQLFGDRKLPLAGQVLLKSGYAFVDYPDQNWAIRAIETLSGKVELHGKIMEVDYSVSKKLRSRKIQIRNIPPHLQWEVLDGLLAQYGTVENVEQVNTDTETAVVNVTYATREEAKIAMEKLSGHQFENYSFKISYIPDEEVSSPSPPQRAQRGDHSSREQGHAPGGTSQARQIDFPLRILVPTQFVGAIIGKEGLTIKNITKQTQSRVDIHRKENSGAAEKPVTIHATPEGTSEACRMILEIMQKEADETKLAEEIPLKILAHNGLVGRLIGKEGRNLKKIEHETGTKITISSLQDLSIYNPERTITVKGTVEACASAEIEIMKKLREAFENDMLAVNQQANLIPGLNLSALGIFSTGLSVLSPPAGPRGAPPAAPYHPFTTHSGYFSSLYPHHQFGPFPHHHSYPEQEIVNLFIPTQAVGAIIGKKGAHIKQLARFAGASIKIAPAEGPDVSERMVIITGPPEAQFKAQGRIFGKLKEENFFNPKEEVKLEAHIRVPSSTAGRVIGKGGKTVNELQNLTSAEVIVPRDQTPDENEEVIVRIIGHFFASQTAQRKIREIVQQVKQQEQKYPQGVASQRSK
UniProt O00425: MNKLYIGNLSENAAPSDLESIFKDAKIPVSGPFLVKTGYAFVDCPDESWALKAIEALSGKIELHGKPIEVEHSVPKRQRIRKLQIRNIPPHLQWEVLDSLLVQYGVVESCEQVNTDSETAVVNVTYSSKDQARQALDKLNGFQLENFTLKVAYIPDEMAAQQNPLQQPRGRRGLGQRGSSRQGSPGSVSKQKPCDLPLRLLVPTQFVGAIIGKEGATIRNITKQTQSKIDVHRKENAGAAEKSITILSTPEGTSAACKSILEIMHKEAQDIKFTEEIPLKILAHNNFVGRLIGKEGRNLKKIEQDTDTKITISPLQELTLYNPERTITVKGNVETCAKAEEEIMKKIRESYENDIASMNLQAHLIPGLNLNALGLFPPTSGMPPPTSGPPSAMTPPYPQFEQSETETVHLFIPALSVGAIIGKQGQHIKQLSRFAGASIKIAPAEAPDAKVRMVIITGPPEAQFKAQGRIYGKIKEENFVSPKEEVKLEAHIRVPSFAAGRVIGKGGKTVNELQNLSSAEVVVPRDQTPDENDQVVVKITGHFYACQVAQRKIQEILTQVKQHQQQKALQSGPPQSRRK
UniProt Q14258: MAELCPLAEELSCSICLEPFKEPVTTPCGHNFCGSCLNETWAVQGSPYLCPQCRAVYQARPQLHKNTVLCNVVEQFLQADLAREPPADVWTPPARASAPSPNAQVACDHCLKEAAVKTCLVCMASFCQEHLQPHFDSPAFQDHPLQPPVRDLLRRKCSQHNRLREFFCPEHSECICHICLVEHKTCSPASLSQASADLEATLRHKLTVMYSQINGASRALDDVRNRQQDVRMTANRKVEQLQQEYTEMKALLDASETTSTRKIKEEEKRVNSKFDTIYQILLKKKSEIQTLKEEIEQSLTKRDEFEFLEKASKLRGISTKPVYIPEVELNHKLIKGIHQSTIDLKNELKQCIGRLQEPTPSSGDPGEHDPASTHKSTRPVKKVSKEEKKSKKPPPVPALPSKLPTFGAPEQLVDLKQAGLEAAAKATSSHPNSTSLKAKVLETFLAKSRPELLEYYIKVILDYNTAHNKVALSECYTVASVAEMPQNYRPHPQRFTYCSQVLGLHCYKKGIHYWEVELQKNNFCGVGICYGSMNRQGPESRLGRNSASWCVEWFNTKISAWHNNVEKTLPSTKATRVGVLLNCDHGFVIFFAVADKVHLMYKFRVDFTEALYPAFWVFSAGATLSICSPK

Columns and labels:
Test in all cases: co-IP; A549 cell lysate in co-IP buffer with proteinase, phosphatase and RNase inhibitors; beads preincubated with antibodies, 4 °C overnight; cells also with vector, circNDUFB2 or circNDUFB2-MUT overexpression; RNase R (100 U/ml) treatment
[1] = molecular target: Insulin-like growth factor 2 mRNA-binding protein 1 (human) (UniProt Q9NZI8)
[2] = molecular target: Insulin-like growth factor 2 mRNA-binding protein 2 (human) (UniProt Q9Y6M1)
[3] = molecular target: Insulin-like growth factor 2 mRNA-binding protein 3 (human) (UniProt O00425)

binding [1]: binds | binding [2]: binds | binding [3]: binds
Substance: TRIM25 (from UniProt Q14258 1-630) (enzyme)
